Experimental findings from article PMC12428157 are described below.

Results are given in words; binding and its absence hold for the method and conditions named. In cells and extracts the contact can be indirect. Here binding means that the protein was enriched with, or labelled near, the bait; the list need not be complete.

The assay addresses human epidermal growth factor receptor 2 (HER2) (human (endogenous in breast cancer specimens and SK-BR-3)) (UniProt P04626). In words: affinity purification with mass spectrometry; RIME on human breast cancer specimens (Cases 1, 2 and 3): cryosections fixed in 1% formaldehyde for 20 min, lysed and sonicated; endogenous HER2 immunoprecipitated with anti-HER2 antibody 3B5 (ab16901) on Dynabeads Protein G overnight at 4 °C; washed with RIPA and AMBIC; on-bead trypsin digestion; LC-MS/MS with label-free quantification against mouse IgG control.

B1: Myristoylated Alanine-Rich C Kinase Substrate (MARCKS) (protein, UniProt P29966 1-332)
chain: MGAQFSKTAAKGEAAAERPGEAAVASSPSKANGQENGHVKVNGDASPAAAESGAKEELQANGSAPAADKEEPAAAGSGAASPSAAEKGEPAAAAAPEAGASPVEKEAPAEGEAAEPGSPTAAEGEAASAASSTSSPKAEDGATPSPSNETPKKKKKRFSFKKSFKLSGFSFKKNKKEAGEGGEAEAPAAEGGKDEAAGGAAAAAAEAGAASGEQAAAPGEEAAAGEEGAAGGDPQEAKPQEAAVAPEKPPASDETKAAEEPSKVEEKKAEEAGASAAACEAPSAAGPGAPPEQEAAPAEEPAAAAASSACAAPSQEAQPECSPEAPPAEAAE
For B1, the binding result is on record as “binds”.
